# Laboratory results from PubChem BioAssay AID652054 (National Center for Advancing Translational Sciences (NCATS), 2013).
# By UniProt entry, the sequences of proteins in these tests, tags left out.
# UniProt P35462, whole entry, looked up: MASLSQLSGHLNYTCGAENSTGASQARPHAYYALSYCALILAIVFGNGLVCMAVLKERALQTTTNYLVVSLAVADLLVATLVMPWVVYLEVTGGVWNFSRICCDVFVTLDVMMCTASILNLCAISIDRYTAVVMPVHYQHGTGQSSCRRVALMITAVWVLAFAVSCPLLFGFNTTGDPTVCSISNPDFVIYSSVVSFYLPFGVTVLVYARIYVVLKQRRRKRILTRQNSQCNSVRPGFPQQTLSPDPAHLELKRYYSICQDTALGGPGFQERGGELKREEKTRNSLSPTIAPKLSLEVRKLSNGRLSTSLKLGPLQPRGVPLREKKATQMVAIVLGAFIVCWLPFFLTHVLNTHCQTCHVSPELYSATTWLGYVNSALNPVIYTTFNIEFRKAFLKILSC
# Among all 360,000 compounds or so, about 9,100 (2.5%) were called active. The shares of active, inactive and inconclusive entries below differ from those in the screen. Cut-off read from the data, not from the text of the source: active = max response below about -50%; inconclusive = no clear call, values can overlap the other calls; inactive = above that.
# Molecular target: D(3) dopamine receptor (Homo sapiens) (UniProt P35462)
# Assay: qHTS of D3 Dopamine Receptor Antagonist: qHTS
# Conditions: D3R cells, DiscoveRx beta-arrestin luminescence, antagonist mode; active compounds read low
# Summary of the method: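 Cells plated overnight at 1500 cells/well, then exposed to library compounds with dopamine controls for 90 minutes at 37 degrees C. DiscoveRx reagent added for 30–60 minutes at room temperature; luminescence read, quantitative HTS format.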
# % is set by controls: 0 for no effect and ±100 for the full control effect.
row,SMILES,"max response, negative = inhibition"
1,CCOC(=O)[C@H]1[C@H]2COc3ccc(C)cc3[C@@H]2N2C(=O)c3ccc(C)cc3NC(=O)[C@@]12C,inactive: 0%
2,COc1ccccc1N(C)S(=O)(=O)c1ccc(C(=O)N(C)Cc2ccc(OC(F)F)cc2)cc1,inactive: 14.3%
3,CCN(CC)C(=O)/C(=C/c1cccc([N+](=O)[O-])c1)NC(=O)c1ccco1,inconclusive: -34.5%
4,CCOc1ccccc1OCCCNCc1ccccc1,active: -58.9%
5,O=C(N/N=C/c1ccccc1O)NC12CC3CC(CC(C3)C1)C2,inconclusive: -36.5%
6,Cc1ccc(S(=O)(=O)Cn2nnnc2C(CC(C)C)N2CCN(C3CCCC3)CC2)cc1 (stereo not drawn),inconclusive: -37.8%
7,CCCCC(CC)COC(=O)C(C#N)=C(c1ccccc1)c1ccccc1 (stereo not drawn),active: -73.7%
8,Nn1cnc2scc(-c3ccc(Cl)cc3)c2c1=O,inconclusive: -39%
9,COc1ccc(C(=O)NCCCCCCNC(=O)c2ccc(OC)cc2)cc1,inconclusive: -30%
10,Nc1nc(=S)c2ncn(C3OC(CO)C(O)C3O)c2[nH]1 (stereo not drawn),inconclusive: -31.1%
11,COc1cccc(CN2CCN(C(=O)CC(C)C)CC2)c1,inconclusive: -46.3%
12,OCC1(Cc2cccc(F)c2)CCN(Cc2ccc3cccc(F)c3n2)CC1,active: -74.5%
13,CCn1cc(CN2CCC(C(=O)Nc3ccc(Oc4ccccc4F)cc3)CC2)c(C)n1,inconclusive: -42.9%
14,CCCN1CCC(NC(=O)Nc2cc(Cl)ccc2OC)CC1,inconclusive: -33.1%
15,Cc1ccc(CN2CCN(Cc3cccc4nccnc34)CC2CCO)cc1 (stereo not drawn),inconclusive: -41.2%
16,CCCCCCN1N=C(C)C(C(=O)c2ccc(Cl)cc2)C1=O (stereo not drawn),active: -83.4%
17,Cc1cccc(Cn2nc(C)cc2NC(=O)Cn2cc([N+](=O)[O-])cn2)c1,inactive: 35.5%
18,CCn1cc(SCC(=O)Nc2cc(C)on2)c2ccccc21,active: -88.8%
19,CC(C)(C)c1ccc(-c2nn(CCC#N)cc2/C=N/O)cc1,inconclusive: -49.6%
20,CCOc1ccccc1OCCCC(=O)Nc1cccc(-n2cnnn2)c1C,inconclusive: -37.9%
21,CC(C)C[C@H](NC(=O)c1[nH]cnc1C(=O)N[C@@H](C)c1ccccc1)C(=O)OC(C)(C)C,inconclusive: -30.1%
22,Cc1ncoc1C(=O)Nc1ncc([N+](=O)[O-])s1,inconclusive: -44.3%

row,SMILES,"max response, negative = inhibition"
1,NC(=O)c1ccccc1NC(=S)NC(=O)CCc1ccccc1,inconclusive: -36.8%
2,CN(C)S(=O)(=O)N1CCC(Oc2cccc(C(=O)NCCC3=CCCCC3)c2)CC1,inactive: 0.634%
3,O=C(OCCN1CCN(c2ncc(C(F)(F)F)cc2Cl)CC1)c1ccc(F)cc1,inconclusive: -39.8%
4,CC(C)(C)C1CCC(CN2C(Nc3ccccc3)=NC[C@@H]2Cc2ccccc2)CC1 (stereo partly drawn),inconclusive: -45.8%
5,Cc1ccc(CN2CCN(/N=C/c3ccco3)CC2)c(C)c1,active: -78.6%
6,Cc1noc(C)c1COc1cccc(C(=O)Nc2ccccc2)c1,inactive: -2.6%
7,COc1ccccc1OCC(=O)Nc1cc(C(F)(F)F)ccc1-n1cncn1,inactive: 7.64%
8,COc1ccc(-c2cc(C(F)(F)F)nc(N3CCOCC3)n2)cc1OC,inactive: 5.35%
9,Nc1cccc(NP(=O)(c2ccccc2)c2ccccc2)c1,inactive: 4.45%
10,CN(Cc1ccccc1)C(=O)CN(Cc1ccccc1)S(C)(=O)=O,inconclusive: -33.9%
11,CC(=O)Nc1c(O)nc(SCc2ccccc2C#N)[nH]c1=O,active: -51%
12,CC(=O)c1c(O)c(C)c(O)c2c1OC1=CC(=O)C(C(C)=O)C(=O)[C@@]12C (stereo partly drawn),inconclusive: -47.6%
13,O=[N+]([O-])CC1(n2nc3ccccc3n2)CCCCC1,inconclusive: -31.4%
14,COc1ccc(N(C(C)C(=O)NCCSCc2cccc(Cl)c2)S(C)(=O)=O)cc1 (stereo not drawn),inactive: -22.5%
15,CN(C)CCCN(C(=O)c1ccc(S(=O)(=O)N2CCCCC2)cc1)c1nc2cc3c(cc2s1)OCO3,inconclusive: -41.7%
16,COc1cc(OC)c2c(-c3ccccc3)cc(=O)oc2c1C(CCN1CCCC(C)C1)c1ccc(N(C)C)cc1 (stereo not drawn),inconclusive: -46.5%
17,COc1ccc2oc(=O)c(C(=O)N3c4ccccc4CC3C)cc2c1 (stereo not drawn),inconclusive: -32.7%
18,CCCc1nnc(NC(=O)c2nc(S(=O)(=O)Cc3ccc(C)cc3)ncc2Cl)s1,active: -65.5%
19,CNc1c([N+](=O)[O-])cnn1-c1ccc(Cl)cc1Cl,inconclusive: -38%
20,N#Cc1ccc(NC(=O)Cn2cnc([N+](=O)[O-])c2)cc1,inactive: 4.45%
21,COc1ccc(CNCC(O)(c2ccccc2)c2ccc(Cl)cc2)cc1 (stereo not drawn),inconclusive: -36.7%
22,COC(=O)C1=C(C)NC(C)=C(C(=O)OC)C1c1ccc(OC(=O)c2oc3ccccc3c2C)c(OC)c1,inactive: -14.6%

row,SMILES,"max response, negative = inhibition"
1,Cc1ccc(N2CC(C(=O)N3CCc4ccccc43)CC2=O)cc1 (stereo not drawn),inconclusive: -41.7%
2,Cc1cc(C)cc(NC(=O)CCCN2C(=O)C(c3ccccc3)Oc3cccnc32)c1 (stereo not drawn),inactive: 0.18%
3,Cc1nn(C)c(C)c1NC(=O)CCl,inactive: -2.68%
4,COc1cc(/C=N/Nc2ccc(Cl)cc2)ccc1OC(=O)c1cccs1,inconclusive: -37.2%
5,Cc1cccc(-c2n[nH]c(=S)n2/N=C/C=C/c2ccco2)c1,active: -97.6%
6,COc1ccccc1NS(=O)(=O)c1ccc(NC(=O)c2nc3ncccn3n2)cc1,inconclusive: -37.7%
7,Cc1ccc(NC(=S)N(CCCN2CCOCC2)Cc2cccs2)c(C)c1,inconclusive: -36.4%
8,Cc1cc2nc3ccc(=[N+](C)C)cc-3sc2cc1N,active: -54.1%
9,O=C(NCc1ccccc1)c1cc(=O)[nH]c2ccccc12,inconclusive: -44.3%
10,COc1cccc(Cn2c3ccc(NC(=O)Cc4cc(OC)ccc4OC)cc3c(=O)n2C)c1,inactive: 11.6%
11,COc1ccc(S(=O)(=O)NCCCn2ccnc2)cc1Cl,inactive: 23%
12,C/C=C/c1ccc(OCCN2CCc3ccccc3C2)c(OC)c1,active: -75.8%
13,Cc1cccnc1NC(=O)CCNS(=O)(=O)c1ccc2c(c1)c(=O)n(C)c(=O)n2C,inactive: -4.55%
14,O=C(Nc1cccc(Br)c1)Oc1cccc2cccnc12,active: -83%
15,O=C(Cn1cnc([N+](=O)[O-])n1)NC1CC1,inactive: -4.47%
16,Cc1ccc2ccc(C(Nc3ccccn3)c3ccccc3)c(O)c2n1 (stereo not drawn),active: -59.4%
17,CCOc1ccc(C(=O)Nc2ccc3c(c2)OCCO3)cc1[N+](=O)[O-],inactive: -8.28%
18,COc1cc(C(=O)COC(=O)c2ccc3c(c2)OCCO3)cc(OC)c1OC,inconclusive: -42.5%
19,O=C1CCC[C@@H]2C[C@@]3(C[C@@H]4CCN1[C@H]24)Nc1cc([N+](=O)[O-])ccc1NC3=NC1CCCCC1,inconclusive: -35.6%
20,C/C(NCCc1ccc(O)cc1)=C1/CCOC1=O,inactive: 5.95%
21,C[C@@H]1CCCCO[C@H](CN(C)C(=O)Nc2cccc3ccccc23)[C@@H](C)CN([C@H](C)CO)C(=O)c2cc(NC(=O)c3ccccc3)ccc2O1,inconclusive: -40.5%
22,Cc1ccc(CN2CCN(C3CCCC3)C(CCO)C2)s1 (stereo not drawn),active: -51.1%

row,SMILES,"max response, negative = inhibition"
1,CCOC(=O)c1sc(NC(=O)c2ccc(C)s2)cc1C,inactive: -28.9%
2,C=CCC[C@H](Cc1ccc(F)cc1)C(=O)OC[C@H](Cc1c[nH]c2ccccc12)NC(=O)[C@@H](CC=C)CC(=O)N(CCO)Cc1ccccc1,inactive: 0%
3,CC(C)[C@@H](C(=O)NCC1CCC(C(=O)O)CC1)n1nnc2ccccc2c1=O (stereo partly drawn),active: -56.8%
4,COc1cc2c(cc1OC)CN(C(=O)c1ccc(Br)o1)CC2,inactive: -0.327%
5,Cc1ccc(N(C)S(=O)(=O)c2ccc3c(c2)NC(=O)C(C)S3)cc1 (stereo not drawn),inconclusive: -34.6%
6,O=C(Nc1ccc(-c2ccccc2)cc1)c1ccco1,inconclusive: -38.8%
7,CC1CCCN(c2ccc(C(=O)NCCc3ccccc3)cn2)C1 (stereo not drawn),inconclusive: -32.6%
8,CCCCN1C2=C(C(=O)CC(C)(C)C2)C(c2ccccc2)C2=C1c1ccccc1C2=O (stereo not drawn),inconclusive: -33.4%
9,O=c1[nH]c2ccccc2n1Cc1ccc(Cl)cc1,inactive: -6.66%
10,O=S(=O)(c1ccc(Oc2ccc(Br)cc2F)nc1)N1CCCCC1,inconclusive: -48.7%
11,COc1ccc(CNc2ccc(-c3ccccc3OC)nn2)cc1,inconclusive: -37.7%
12,CCC(=O)NCC(=O)OCC(=O)c1ccccc1,inconclusive: -38.1%
13,CCOc1ccc(CNC(=O)c2ccc3c(c2)N(CC)CCS3)cc1,active: -66.8%
14,CC(=O)Nc1nnc(-c2ccc(Cl)s2)o1,inconclusive: -38.5%
15,Cc1ccc(SC(=O)COc2ccccc2C)cc1,inactive: 6.98%
16,COc1cc(NC(=O)CN(c2ccc(C)cc2)S(=O)(=O)c2c(C)nn(C)c2C)cc(OC)c1,inconclusive: -32.3%
17,Brc1ccc(CSc2nnc(-c3ccccn3)n2Cc2ccco2)cc1,inconclusive: -32.8%
18,CCOC(=O)COc1ccc(Oc2nc(C)cc(OC)n2)nn1,inconclusive: -42%
19,CC(C)(C)NC(=O)N1CCN(c2ncccc2C(F)(F)F)CC1,inconclusive: -46.7%
20,CC(C)C[C@H](NC(=O)OC(C)(C)C)c1nnc(SCc2cccc(F)c2)o1,inactive: -16.8%
21,CCOC(=O)c1nn(-c2ccccc2C)c(=O)c2c(N)scc12,inconclusive: -36.7%
22,NS(=O)(=O)c1ccc(CCNC(=O)c2ccc(Cl)s2)cc1,inconclusive: -32.1%

# Structures listed so far that contain a CF3 group (4):
row,SMILES,"max response, negative = inhibition"
3,O=C(OCCN1CCN(c2ncc(C(F)(F)F)cc2Cl)CC1)c1ccc(F)cc1,inconclusive: -39.8%
7,COc1ccccc1OCC(=O)Nc1cc(C(F)(F)F)ccc1-n1cncn1,inactive: 7.64%
8,COc1ccc(-c2cc(C(F)(F)F)nc(N3CCOCC3)n2)cc1OC,inactive: 5.35%
19,CC(C)(C)NC(=O)N1CCN(c2ncccc2C(F)(F)F)CC1,inconclusive: -46.7%
